Substitutions are numbered along the chain they refer to. Results are given in words; binding and its absence hold for the method and conditions named. Some entries that bind do so weakly or less than the wild type. One block for each binder: values may come before it.
Tests used:
[1] = target: mouse sRAGE (mouse) (UniProt Q62151); assay: ELISA, O.D. 450 nm, one bar per species; plate format and antibody concentration not given
[2] = target: rat sRAGE (rat) (UniProt Q63495); assay: as above
[3] = target: RAGE V-C1 domains (UniProt Q15109); assay: domain mapping, Table 1
[4] = target: RAGE V domain (UniProt Q15109); assay: domain mapping, Table 1
[5] = target: sRAGE (V-C1-C2) lot LP08062 (human) (UniProt Q15109); assay: ELISA, O.D. 450 nm, one bar per species; plate format and antibody concentration not given
[6] = target: RAGE-Fc (human) (UniProt Q15109); assay: competition ELISA: RAGE-Fc with serially diluted mAb on coated S100A6, bound RAGE-Fc detected by anti-IgG Fc peroxidase; y axis % inhibition
[7] = target: RAGE C2 domain (UniProt Q15109); assay: domain mapping, Table 1
[8] = target: rat sRAGE (rat) (UniProt Q63495); assay: Human/Cyno/rat cross reactivity, Table 1
[9] = target: mouse sRAGE (mouse) (UniProt Q62151); assay: Human/Cyno/rat/mouse cross reactivity, Table 1
[10] = target: rat sRAGE (rat) (UniProt Q63495); assay: Human/Cyno/rat/mouse cross reactivity, Table 1

Chains of the proteins cited; added tags and fusions are not shown. Lines headed by an entry give the natural chain unless they say otherwise; changes in a name come on top. Residues count along the entry.
UniProt Q62151, residues 23-340: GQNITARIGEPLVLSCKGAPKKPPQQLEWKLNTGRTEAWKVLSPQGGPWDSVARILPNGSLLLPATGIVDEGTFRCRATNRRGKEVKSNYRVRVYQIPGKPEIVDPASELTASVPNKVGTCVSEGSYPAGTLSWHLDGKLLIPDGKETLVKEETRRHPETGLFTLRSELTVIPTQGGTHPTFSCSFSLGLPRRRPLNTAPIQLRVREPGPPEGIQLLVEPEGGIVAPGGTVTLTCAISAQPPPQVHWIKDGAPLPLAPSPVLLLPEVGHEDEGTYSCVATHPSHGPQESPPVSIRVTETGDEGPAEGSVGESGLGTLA
UniProt Q63495, residues 23-341: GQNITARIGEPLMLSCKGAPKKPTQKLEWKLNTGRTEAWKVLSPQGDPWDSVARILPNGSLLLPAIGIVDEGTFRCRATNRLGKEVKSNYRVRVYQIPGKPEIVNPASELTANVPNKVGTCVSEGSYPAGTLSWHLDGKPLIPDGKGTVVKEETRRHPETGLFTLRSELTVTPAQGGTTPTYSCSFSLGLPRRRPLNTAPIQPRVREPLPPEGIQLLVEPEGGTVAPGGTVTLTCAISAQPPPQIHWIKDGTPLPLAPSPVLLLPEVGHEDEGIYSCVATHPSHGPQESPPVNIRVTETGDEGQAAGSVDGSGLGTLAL
UniProt Q15109: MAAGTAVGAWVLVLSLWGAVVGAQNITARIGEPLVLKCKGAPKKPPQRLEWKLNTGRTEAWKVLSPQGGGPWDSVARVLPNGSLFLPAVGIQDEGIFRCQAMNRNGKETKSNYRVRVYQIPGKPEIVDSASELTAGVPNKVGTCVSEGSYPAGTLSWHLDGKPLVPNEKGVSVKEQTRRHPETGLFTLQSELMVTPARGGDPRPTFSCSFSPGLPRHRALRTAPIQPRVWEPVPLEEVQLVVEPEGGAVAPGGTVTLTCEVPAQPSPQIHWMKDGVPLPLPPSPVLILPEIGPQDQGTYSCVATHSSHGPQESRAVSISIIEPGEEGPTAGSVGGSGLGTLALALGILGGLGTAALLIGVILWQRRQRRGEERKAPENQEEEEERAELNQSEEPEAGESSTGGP
RAGE-Fc: residues 23-344 of Q15109
sRAGE (V-C1-C2) lot LP08062: residues 23-331 of Q15109
RAGE V-C1 domains: residues 23-233 of Q15109
RAGE V domain: residues 23-121 of Q15109
RAGE C2 domain: residues 235-327 of Q15109

- binding [3]: binds
B3: 253 RAGE-1 (antibody, V domains shown)
VH: QVQLQQSGPELVKPGASVRISCKASGYTFTDYYIHWVKQRPGQGLEWIGWIYPGNVITKYNEKFKGKATLTADKSSSTAYMQLSSLTSEDSAVYFCARYDYDYAMDYWGQGTSVTVSS
VL: DIVMSQSPSSLAVSVGEKVTMSCKSSQTLLYSSNQKNYLAWYQQKPGQSLKLLIYWASTRESGVPDRFAGSGSGTDFTLTISSVKAEDLAVYYCQQYFGYPYTFGGGTKLEIK

- binding [1]: binds
- binding [2]: binds
B8: 259 RAGE-1 (antibody, V domains shown)
VH: QVQLQQSGAELVRPGTSVKVSCKASGYAFTNYLIDWVNQRPGQGLEWIGVINPGSGGTNYNEKFTGKATLTADKSSSTAYMQLSSLTSDDSAVYFCARRRVDTMDYWGQGTSVTVSS
VL: QAVVTQESALTTSPGETVTLTCRSSTGAVTTSNYANWVQEKPDHLFTGLIGGTNNRAPGVPARFSGSLIGDKAALTITGAQTEDEAIYFCALWYSNHWVFGGGTKLTVL

- binding [1]: binds
- binding [2]: binds
- binding [5]: binds
B10: 529 RAGE-1 (antibody, V domains shown)
VH: EIQLQQTGPELVKPGASVKISCKASGYSFTDYIMLWVKQSHGKSLEWIGNINPYYGSTFYNLKFKGKATLTVDKSSSTAYMQLNSLTSEDSAVYYCARSDYWYFDVWGAGTTVTVSS
VL: B8 VL with A57S, W98L

- binding [1]: binds
- binding [2]: binds
B11: 501-4 RAGE-1 (antibody, V domains shown)
VH: EVMLVDSGGGLVKPGGSLKLSCAASGFTFRSYAMSWVRQTPEKRLEWVATISSGGSYTYYPDSVRGRFTTSRDNGKNTLYLQMSSLRSEDTAMYYCARHGGNYSAWFTYWGQGTLVTVSA
VL: B8 VL with G59D

- binding [1]: binds
- binding [2]: binds
B12: 283 RAGE-1 (antibody, V domains shown)
VH: QVQLQQSGAELVRPGTSVKVSCKASGYAFTNYLIEWVKQRPGQGLEWIGVINPGSGGTNYSERFKGKATLTADKSSSTAYMQLSSLTSDDSAVYFCASYRYDGGMDYWGQGTSVTVSS
VL: B8 VL with G51R

- binding [3]: binds
B13: 326 RAGE-1 (antibody, V domains shown)
VH: EVKLVESGGGLVKPGGSLKLSCAASGFAFSSYDMSWVRQTPEKRLEWVATISSGGSYTSYPDSVQGRFTISRDNARNTLYLQMSSLRSEDTALYYCASSQLPPYAMDYWGQGTSVTVSS
VL: DIVMTQSQKFMSTSVGDRVSITCKASQNVGTAVAWYQQKPGQSPKLLIYSASNRYTGVPDRFTGSGSGTDFTLTISNMQSEDLADYFCQQYSSYPLLTFGAGTKLELK

The next lines start with the binder.

B1: 183 RAGE-1 (antibody, V domains shown)
VH: EVQLQQSGTVLARPGASVKMSCKASGYSFTSYWMHWVKQRPGQGLEWIGAIFPGNSDTTYNQKFKGKAKLTAVTSASTAYMELSSLTNEDSAVYYCTGLRRGFPYWGQGTLVTVSV
VL: NIVMTQSPKSMSMSVGERVTLSCKASENVGTYVSWYQQKPEQSPKLLIYGASNRYTGVPDRFTGSGSATDFTLTISSVQAEDLADYHCGQSYSYPYTFGGGTKLEIK
- binding [1]: binds
- binding [2]: binds

B2: 184 RAGE-1 (antibody, V domains shown)
VH: QVQLQQSGAELVRPGTSVKVSCKASGYAFTNYLIEWVKQRPGQGLEWIGMINPGSGGTNYNEKFKGKATLTADKSSSTAYMQLSSLTSDDSAVYFCARGRGGHYRYFDVWGAGTTVTVSS
VL: DIVLTQSPASLAVSLGQRATISCRASKSVSTSGYSYMHWYQQKPGQPPKLLIYLASHLESGVPARFSGSGSGTDFSLNIHPVEEEDAATYYCQHSRELPWTFGGGTKLEIK
- binding [1]: binds
- binding [2]: binds

B4: 158 RAGE-1 (antibody, V domains shown)
VH: QIQLVQSGPELKKPGETVKISCKASGYTFTDYSMHWVKQAPGKGLKWMGWINTETGEPTYADDFKGRFAFSLETSASTAYLLINNLKTEDTATYFCARDYLYYYAMDYWGQGTSVTVSS
VL: DVVLTQTPLSLPVNIGDQASISCKSTKSLLNSDGFTYLDWYLQKPGQSPQLLIYLVSNRFSGVPDRFSGSGSGTDFTLKISRVEAEDLGVYYCFQSNYLPLTFGGGTKVEIK
- binding [4]: binds
- binding [3]: binds
- binding [5]: binds
- binding [6]: binds

B5: 240 RAGE-1 (antibody, V domains shown)
VH: B4 VH with L82Q, T88N
VL: B4 VL with N14S, R66S, L99F, K108T, V109L
- binding [4]: binds
- binding [3]: binds
- binding [5]: binds
- binding [6]: binds

B6: 152 RAGE-1 (antibody, V domains shown)
VH: DVQLQESGPDLVKPSQSLSLTCTVTGYSITSGYSWHWIRQFPGNKLEWMGYIHYSGSTNYNPSLKSRISITRDTSKNQFFLQLNSVTTEDTATYYCARGGDFAYWGQGTLVTVSA
VL: DIVLTQSPASLAVSLGQRATISCRASKSVGTSDSSYMHWYQQKPGQPPKLLIYLASNLESGVPARFSGSGSGTDFTLNIHPVEEEDAATYYCQHSRELYTFGGGTKLEIK
- binding [4]: binds
- binding [3]: binds
- binding [1]: binds
- binding [2]: binds

B7: 210 RAGE-1 (antibody, V domains shown)
VH: EIQLQQTGPELVKPGASVKISCKASGYSFTDYIMVWVKQSHGKSLEWIGTINPYYGSTSYNLKFKGKATLTVDKSSSTANMQLNSLTSEDSAVYYCARLRLYAMDYWGQGTSVTVSS
VL: QAVVTQESALTTSPGETVTLTCRSSTGAVTTSNYANWVQEKPDHLFTGLIGGTNNRAPGVPARFSGSLIGDKAALTITGAQTEDEAIYFCALWYSNHFWVFGGGTKLTVL
- binding [1]: binds
- binding [2]: binds
- binding [5]: binds

B9: 95 RAGE-1 (antibody, V domains shown)
VH: QVQLQQPGAELVKPGASVKLSCKASGYTFTSYWMHWVKQRPGQGLEWIGESNPSNGRTNYNEKFKNKATLTVDKSSSTAYMQLSSLTSEDSAVYYCARAPYYGFDYWGQGTTLTVSS
VL: B8 VL with I50T
- binding [2]: binds

B14: 56 RAGE-1 (antibody, V domains shown)
VH: QVQLQQSGPELVKPGASVRISCKASGYTFTSYFIHWVKQRPGQGLEWIGWIYPGNVNTKYNEKFKDKATLTADKSSSTAYMQLSNLTSEDSAVYFCVRGQLGDYWGQGITLTVSS
VL: DIVMTQSQKFMSTSVGDRVSVTCKASQNVGINVAWYQQKPGQSPKALIYSASYRYSGVPDRFTGSGSGTDFTLIISNVQSEDLAEYFCQQYNNYPRTFGGGTKLEIK
- binding [7]: binds
- binding [8]: binds
- binding [9]: binds
- binding [10]: binds
- binding [1]: binds
- binding [2]: binds
- binding [6]: binds

B15: 173 RAGE-1 (antibody, V domains shown)
VH: EVKLEESGGGLVQPGGSMKLSCVASGFTFSNYWMNWVRQSPEKGLEWVAEIRLKSNNYATHYAESVKGRFTISRDDSKSSVYLQMNDLRAEDPGIYYCIRDYGNYAMDHWGQGTSVTVSS
VL: B14 VL with I31T, I74T, N93S, R96L, G100A, I106L
- binding [4]: binds
- binding [3]: binds

B16: 140 RAGE-1 (antibody, V domains shown)
VH: QVQLQQPGAELVKPGASVRLSCKASGYTFTSYWMHWVKQRPGQGLEWIGEINPSNGRTNYNEKFKSKATLTVDKSSSTAYMQLSSLTSEDSAVYYCARDGLGYRPIAMDYWGQGTSVTVSS
VL: QIVLTQSPAIMSASPGEKVTISCSASSSVSYMYWYQQKPGSSPKPWIYRTSNLASGVPARFSGSGSGTSYSLTISSMEAEDAATYYCQQYHSYPPMYTFGGGTKLEIK
- binding [1]: binds
